What all share (assay): co-IP; lysates of transiently transfected NIH-3T3 cells (untreated, Olaparib- or Camptothecin-treated; RNase A added to lysates in one experiment) immunoprecipitated with anti-HA antibody (anti-DIDO3 CT-specific antibody for ∆NT and SPCT), Protein A/G magnetic beads, Western blot for endogenous PARP1 and DHX9
In assay [1] the target is HA-tagged full-length DIDO3 (mouse) (UniProt Q8C9B9).
The next assay has as its target T1, HA-DIDO-NT (mouse) (UniProt Q8C9B9).
T1 sequence: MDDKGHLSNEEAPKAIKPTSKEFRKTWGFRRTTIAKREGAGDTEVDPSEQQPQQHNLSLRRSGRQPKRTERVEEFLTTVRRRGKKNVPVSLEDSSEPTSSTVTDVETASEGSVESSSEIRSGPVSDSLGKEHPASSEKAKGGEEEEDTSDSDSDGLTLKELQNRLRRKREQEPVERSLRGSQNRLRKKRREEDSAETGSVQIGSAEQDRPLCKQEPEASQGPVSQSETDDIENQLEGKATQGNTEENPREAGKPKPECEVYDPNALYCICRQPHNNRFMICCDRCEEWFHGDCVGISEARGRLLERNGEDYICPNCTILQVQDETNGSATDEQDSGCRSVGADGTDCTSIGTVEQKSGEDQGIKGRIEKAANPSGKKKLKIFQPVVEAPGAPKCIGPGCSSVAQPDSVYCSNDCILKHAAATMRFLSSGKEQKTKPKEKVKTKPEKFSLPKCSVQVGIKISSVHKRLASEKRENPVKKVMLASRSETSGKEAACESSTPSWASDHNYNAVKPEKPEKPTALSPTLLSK

Chains of the proteins cited; added tags and fusions are not shown.
UniProt O70133: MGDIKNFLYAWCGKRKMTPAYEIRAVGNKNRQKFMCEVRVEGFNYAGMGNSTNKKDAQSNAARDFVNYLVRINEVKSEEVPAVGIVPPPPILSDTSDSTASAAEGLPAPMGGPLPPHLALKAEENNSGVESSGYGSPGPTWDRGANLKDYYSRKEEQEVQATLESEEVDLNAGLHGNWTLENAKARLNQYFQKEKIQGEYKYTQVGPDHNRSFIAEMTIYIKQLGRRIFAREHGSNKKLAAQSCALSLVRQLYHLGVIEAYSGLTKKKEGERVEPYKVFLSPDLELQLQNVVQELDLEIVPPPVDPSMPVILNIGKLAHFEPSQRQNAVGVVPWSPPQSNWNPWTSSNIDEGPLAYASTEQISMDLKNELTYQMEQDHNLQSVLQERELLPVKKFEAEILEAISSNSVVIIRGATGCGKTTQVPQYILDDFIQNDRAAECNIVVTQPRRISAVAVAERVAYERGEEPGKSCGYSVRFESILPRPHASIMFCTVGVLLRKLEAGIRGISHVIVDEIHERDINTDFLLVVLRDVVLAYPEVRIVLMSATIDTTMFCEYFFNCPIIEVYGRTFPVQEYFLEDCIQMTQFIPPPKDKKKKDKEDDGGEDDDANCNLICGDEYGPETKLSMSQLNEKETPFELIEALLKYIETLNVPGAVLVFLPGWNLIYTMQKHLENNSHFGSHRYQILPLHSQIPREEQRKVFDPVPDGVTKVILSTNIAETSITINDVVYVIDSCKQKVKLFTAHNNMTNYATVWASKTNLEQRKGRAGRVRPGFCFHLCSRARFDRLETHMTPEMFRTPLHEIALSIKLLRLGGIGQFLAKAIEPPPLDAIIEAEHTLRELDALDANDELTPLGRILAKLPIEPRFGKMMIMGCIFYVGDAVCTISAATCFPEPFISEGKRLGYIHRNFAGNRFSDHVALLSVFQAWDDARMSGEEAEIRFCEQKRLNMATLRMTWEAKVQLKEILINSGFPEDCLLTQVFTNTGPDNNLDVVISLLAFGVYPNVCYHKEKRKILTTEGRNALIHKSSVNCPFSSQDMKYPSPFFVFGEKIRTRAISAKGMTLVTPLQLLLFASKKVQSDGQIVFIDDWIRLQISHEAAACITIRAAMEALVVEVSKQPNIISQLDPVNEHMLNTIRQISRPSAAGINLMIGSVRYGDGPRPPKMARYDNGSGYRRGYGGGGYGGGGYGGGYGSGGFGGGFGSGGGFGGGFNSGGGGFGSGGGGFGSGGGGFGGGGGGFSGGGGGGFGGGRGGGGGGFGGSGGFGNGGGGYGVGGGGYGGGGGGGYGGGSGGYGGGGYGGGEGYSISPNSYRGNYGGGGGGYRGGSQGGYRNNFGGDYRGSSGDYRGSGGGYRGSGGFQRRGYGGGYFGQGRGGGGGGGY
UniProt P11103: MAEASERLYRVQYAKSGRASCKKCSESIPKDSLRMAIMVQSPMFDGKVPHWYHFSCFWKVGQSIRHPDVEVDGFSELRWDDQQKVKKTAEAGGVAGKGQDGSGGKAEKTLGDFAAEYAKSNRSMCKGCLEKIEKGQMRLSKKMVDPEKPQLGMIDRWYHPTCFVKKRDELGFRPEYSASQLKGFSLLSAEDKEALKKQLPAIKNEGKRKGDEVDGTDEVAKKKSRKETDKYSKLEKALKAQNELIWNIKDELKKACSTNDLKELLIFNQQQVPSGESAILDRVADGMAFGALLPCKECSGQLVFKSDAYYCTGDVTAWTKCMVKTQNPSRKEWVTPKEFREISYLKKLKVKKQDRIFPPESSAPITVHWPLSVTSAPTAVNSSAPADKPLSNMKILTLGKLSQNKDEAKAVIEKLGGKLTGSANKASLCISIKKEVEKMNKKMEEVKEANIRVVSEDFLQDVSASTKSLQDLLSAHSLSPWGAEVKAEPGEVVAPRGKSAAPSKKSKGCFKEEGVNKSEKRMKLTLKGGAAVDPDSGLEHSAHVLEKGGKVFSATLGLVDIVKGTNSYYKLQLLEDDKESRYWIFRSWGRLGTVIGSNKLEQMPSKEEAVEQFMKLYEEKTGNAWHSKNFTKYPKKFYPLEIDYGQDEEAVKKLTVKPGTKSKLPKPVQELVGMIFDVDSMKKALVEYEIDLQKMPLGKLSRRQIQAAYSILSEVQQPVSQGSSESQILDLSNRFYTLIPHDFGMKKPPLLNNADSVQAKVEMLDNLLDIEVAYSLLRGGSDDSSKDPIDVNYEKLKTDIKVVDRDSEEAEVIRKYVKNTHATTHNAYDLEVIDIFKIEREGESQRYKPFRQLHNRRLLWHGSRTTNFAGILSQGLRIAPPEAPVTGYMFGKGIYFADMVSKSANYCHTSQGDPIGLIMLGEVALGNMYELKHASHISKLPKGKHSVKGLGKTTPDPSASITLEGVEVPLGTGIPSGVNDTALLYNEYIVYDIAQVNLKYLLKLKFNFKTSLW

The next assay has as its target T2, HA-DIDO-NTs (mouse) (UniProt Q8C9B9).
T2 sequence: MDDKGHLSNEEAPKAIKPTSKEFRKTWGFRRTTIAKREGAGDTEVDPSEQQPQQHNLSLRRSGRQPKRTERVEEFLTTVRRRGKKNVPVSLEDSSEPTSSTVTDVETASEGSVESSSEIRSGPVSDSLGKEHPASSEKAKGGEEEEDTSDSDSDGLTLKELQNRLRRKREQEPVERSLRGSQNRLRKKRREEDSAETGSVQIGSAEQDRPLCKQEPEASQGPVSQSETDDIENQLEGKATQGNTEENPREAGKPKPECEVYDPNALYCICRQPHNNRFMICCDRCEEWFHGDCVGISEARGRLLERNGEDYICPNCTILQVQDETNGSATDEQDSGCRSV

The target of another assay is T3, HA-DIDO2 (mouse) (UniProt Q8C9B9).
T3 sequence: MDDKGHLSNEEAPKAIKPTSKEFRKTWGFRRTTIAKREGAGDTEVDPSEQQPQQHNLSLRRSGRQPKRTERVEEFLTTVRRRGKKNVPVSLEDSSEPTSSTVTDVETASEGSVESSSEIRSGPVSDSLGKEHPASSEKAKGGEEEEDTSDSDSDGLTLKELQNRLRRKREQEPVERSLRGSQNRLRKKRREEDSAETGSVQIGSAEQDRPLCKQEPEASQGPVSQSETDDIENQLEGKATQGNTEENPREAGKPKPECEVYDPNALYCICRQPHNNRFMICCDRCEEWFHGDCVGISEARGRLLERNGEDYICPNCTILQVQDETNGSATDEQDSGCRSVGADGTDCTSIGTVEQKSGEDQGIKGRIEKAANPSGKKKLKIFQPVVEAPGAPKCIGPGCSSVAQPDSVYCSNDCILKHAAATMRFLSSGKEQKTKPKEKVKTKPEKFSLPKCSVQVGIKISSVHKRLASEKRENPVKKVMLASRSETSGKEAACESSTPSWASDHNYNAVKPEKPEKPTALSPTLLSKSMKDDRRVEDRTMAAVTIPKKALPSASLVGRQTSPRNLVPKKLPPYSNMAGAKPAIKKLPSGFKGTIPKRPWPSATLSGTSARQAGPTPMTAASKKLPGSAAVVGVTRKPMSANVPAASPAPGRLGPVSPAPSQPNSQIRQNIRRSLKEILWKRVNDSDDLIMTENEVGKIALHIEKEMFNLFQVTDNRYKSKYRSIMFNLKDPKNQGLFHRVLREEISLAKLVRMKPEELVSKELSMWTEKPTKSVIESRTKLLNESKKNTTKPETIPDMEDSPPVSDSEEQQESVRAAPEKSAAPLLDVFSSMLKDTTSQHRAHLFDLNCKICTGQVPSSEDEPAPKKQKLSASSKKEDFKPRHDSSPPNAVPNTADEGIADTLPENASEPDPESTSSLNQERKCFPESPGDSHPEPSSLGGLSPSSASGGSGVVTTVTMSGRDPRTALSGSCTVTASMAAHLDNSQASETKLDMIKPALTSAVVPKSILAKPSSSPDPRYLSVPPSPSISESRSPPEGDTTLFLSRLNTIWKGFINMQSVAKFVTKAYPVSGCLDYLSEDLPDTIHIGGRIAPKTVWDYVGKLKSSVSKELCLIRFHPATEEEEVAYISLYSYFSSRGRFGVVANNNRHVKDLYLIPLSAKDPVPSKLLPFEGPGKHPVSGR

Results are given in words; binding and its absence hold for the method and conditions named. In cells and extracts the contact can be indirect. Some binding calls cover weakened binding; strength is not graded here. For some assays here: Where a sequence is shown, tags or fusion partners need not be part of it.

On to DHX9 (from UniProt O70133 1-1380), for which the binding entry in assay [1] is on record as “binds”.

For PARP1 (from UniProt P11103 1-1013), the binding result (with HA-DIDO-NT (mouse); with HA-DIDO-NTs (mouse); in the assay with HA-DIDO2 (mouse); in assay [1]) was “binds” each time.

The values above are taken from PMC10814579.
